According to publication PMC6639060:
Numbering of substitutions follows the chain as printed. No constants are given. Whether binding was seen depends on the method and setting. In cells and extracts the contact can be indirect. Binding calls can cover weak binding; strength is not graded here. Where a sequence is shown, tags or fusion partners need not be part of it.

Protein sequences, listed by entry. Tags and fused reporters are not part of them. Lines headed by an entry give the natural chain unless they say otherwise; changes in a name come on top.
UniProt Q5TC63: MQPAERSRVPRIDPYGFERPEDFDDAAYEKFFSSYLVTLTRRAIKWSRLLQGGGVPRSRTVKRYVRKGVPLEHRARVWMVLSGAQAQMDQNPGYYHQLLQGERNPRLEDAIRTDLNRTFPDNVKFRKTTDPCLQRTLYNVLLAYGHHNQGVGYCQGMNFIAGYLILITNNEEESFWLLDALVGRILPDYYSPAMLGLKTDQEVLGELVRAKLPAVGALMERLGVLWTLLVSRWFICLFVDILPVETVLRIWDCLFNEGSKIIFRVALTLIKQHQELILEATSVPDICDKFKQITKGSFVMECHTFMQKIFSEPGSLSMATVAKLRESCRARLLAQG

What was measured:
Test in all cases: pull-down; GST-Rab26 (wild type or mutant) fusion proteins (MagneGST pulldown system) incubated with total HEK293 cell lysates expressing TBC proteins or TBC1D6 domains; 500 μL binding buffer, 20 mM Tris-HCl pH 7.5, 140 m NaCl, 1% Nonidet P-40, 4 h at 4°C; bound proteins detected by immunoblotting; only the target purified
GST-Rab26 = biological target: T1, GST-Rab26 (UniProt Q9ULW5)
T1 sequence: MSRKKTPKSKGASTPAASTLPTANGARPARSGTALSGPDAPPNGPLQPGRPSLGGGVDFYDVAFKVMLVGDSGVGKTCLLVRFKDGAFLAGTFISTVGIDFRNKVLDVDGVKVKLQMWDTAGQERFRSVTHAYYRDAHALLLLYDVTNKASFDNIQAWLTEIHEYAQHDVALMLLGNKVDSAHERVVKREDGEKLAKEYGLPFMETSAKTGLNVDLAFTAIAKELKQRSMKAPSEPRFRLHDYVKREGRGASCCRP

GST-Rab26Q123L = biological target: T2, GST-Rab26Q123L (UniProt Q9ULW5)
T2 sequence: T1 sequence with Q123L

GST-Rab26T77N = biological target: T3, GST-Rab26T77N (UniProt Q9ULW5)
T3 sequence: T1 sequence with T77N

| binding (GST-Rab26) | binding (GST-Rab26Q123L) | binding (GST-Rab26T77N) | Substance |
| --- | --- | --- | --- |
| binds | binds | binds | TBC1D6 C terminus (from UniProt Q5TC63) (domain or fragment) |
| binds | binds | binds | TBC1D6 TBC domain (from UniProt Q5TC63) (domain or fragment) |
